Assay results as given in patent US20250368742A1.
Results are given in words; binding and its absence hold for the method and conditions named. Some binding calls cover weakened binding; strength is not graded here. Where a sequence is shown, tags or fusion partners need not be part of it.

By UniProt entry, the sequences of proteins in these tests, tags left out. Residues count along the entry.
UniProt P26718, residues 78-216: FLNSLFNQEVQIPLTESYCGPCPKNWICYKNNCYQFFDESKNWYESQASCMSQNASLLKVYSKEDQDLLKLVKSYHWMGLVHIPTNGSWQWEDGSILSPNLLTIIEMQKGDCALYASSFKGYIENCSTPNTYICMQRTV

Target: NKG2D-His (UniProt P26718)
Experiment: ELISA: NKG2D-His coated, MICA/B-ECD titrated, detection 1D5 + anti-hFc-HRP

binding	Binder
binds	MICA008-ECD-HISAvi (ligand) EPHSLRYNLTVLSWDGSVQSGFLAEVHLDGQPFLRYDRQKCRAKPQGQWAEDVLGNKTWDRETRDLTGNGKDLRMTLAHIKDQKEGLHSLQEIRVCEIHEDNSTRSSQHFYYDGELFLSQNLETEEWTVPQSSRAQTLAMNVRNFLKEDAMKTKTHYHAMHADCLQELRRYLESGVVLRRTVPPMVNVTRSEASEGNITVTCRASSFYPRNIILTWRQDGVSLSHDTQQWGDVLPDGNGTYQTWVATRICRGEEQRFTCYMEHSGNHSTHPVPSGKVLVLQSHWQHHHHHHGLNDIFEAQKIEWHE
binds	MICA004-ECD-HISAvi (ligand) EPHSLRYNLTVLSWDGSVQSGFLAEVHLDGQPFLRYDRQKCRAKPQGQWAEDVLGNKTWDRETRDLTGNGKDLRMTLAHIKDQKEGLHSLQEIRVCEIHEDNSTRSSQHFYYDGELFLSQNVETEEWTVPQSSRAQTLAMNVRNFLKEDAMKTKTHYHAMHADCLQELRRYLESSVVLRRRVPPMVNVTRSEASEGNITVTCRASSFYPRNITLTWRQDGVSLSHDTQQWGDVLPDGNGTYQTWVATRICQGEEQRFTCYMEHSGNHSTHPVPSGKVLVLQSHWQHHHHHHGLNDIFEAQKIEWHE
